PubChem BioAssay AID1259314, Drosophila RNAi Screening Center – 2017

Screen: 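Genes whose knock-down alters cell survival under toxic manganese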 (primary screen)
Cells: Drosophila S2R+ cells
Knock-down reagent: long dsRNA against Drosophila genes
Duration: 5 days (4 days knock-down, then 1 day metal exposure)
Treatment: manganese chloride added to 15 mM for 24 hours
Measured: 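Cellular ATP measured by luciferase light, scaled to the plate mean, averaged across replicates and z-scored over plates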
Direction: mean ATP z-score: higher = more ATP than the plate average, more viable cells under manganese
Rule for the call: 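Called active when the mean ATP z-score is above 1.5 or below -1.5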
Calls: active = strong ATP change, up or down; inactive = no strong ATP change
In all, the deposit lists about 3,100 reagents; this is a random part of them. 289 of all reagents (9.3%) count as active. 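Active includes both higher and lower ATP than plate average; check the z-score sign for direction.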 A plus sign joins genes that one reagent is predicted to hit. Not given: the amount of reagent.

| Target gene | DRSC id | mean ATP z-score | Outcome |
| --- | --- | --- | --- |
| Octbeta2R | DRSC15350 | -0.562 | inactive |
| Octbeta2R | DRSC16165 | -0.718 | inactive |
| Octbeta2R | DRSC25380 | 0.488 | inactive |
| if | DRSC20341 | -0.0551 | inactive |
| if | DRSC39458 | -1.01 | inactive |
| Icmt | DRSC09834 | -0.678 | inactive |
| Icmt | DRSC39884 | 1.61 | active |
| CG33298 | DRSC02210 | -0.513 | inactive |
| CG33298 | DRSC02672 | 1.42 | inactive |
| CG14070 | DRSC02373 | 0.874 | inactive |
| alpha-Cat | DRSC39510 | -0.37 | inactive |
| GC1 | DRSC15322 | -0.175 | inactive |
| GC1 | DRSC25627 | 0.503 | inactive |
| Stt3B | DRSC16781 | -0.439 | inactive |
| Stt3B | DRSC39644 | -0.613 | inactive |
| Lkr | DRSC09754 | -1.25 | inactive |
| Lkr | DRSC39496 | -0.697 | inactive |
| N | DRSC18685 | 0.318 | inactive |
| N | DRSC37611 | 0.335 | inactive |
| Alg12 | DRSC16416 | 0.242 | inactive |
| Alg12 | DRSC39763 | -0.992 | inactive |
| Nrx-IV | DRSC11238 | 0.663 | inactive |
| Nrx-IV | DRSC39823 | -0.451 | inactive |
| Yip1d1 | DRSC02166 | 0.316 | inactive |
| Nup54 | DRSC07282 | -0.86 | inactive |
| Ac3 | DRSC03692 | 1.28 | inactive |
| Ac3 | DRSC39826 | 1.14 | inactive |
| CG31100 | DRSC14453 | 0.0861 | inactive |
| CG31100 | DRSC14455 | 1.23 | inactive |
| CG7091 | DRSC12944 | 0.303 | inactive |
| CG7091 | DRSC16197 | 0.0555 | inactive |
| CG5888 | DRSC01929 | 0.369 | inactive |
| CG5888 | DRSC28190 | 0.868 | inactive |
| Gr39b | DRSC26464 | -0.404 | inactive |
| Gr39b | DRSC39892 | 0.109 | inactive |
| Mpv17 | DRSC17198 | -0.398 | inactive |
| CG42826 | DRSC10682 | -1.13 | inactive |
| Tim23 | DRSC21240 | -2.68 | active |
| MFS10 | DRSC19888 | 0.964 | inactive |
| MFS10 | DRSC26960 | 1.07 | inactive |
| CG6938 | DRSC10752 | -0.72 | inactive |
| CG6938 | DRSC28621 | -0.704 | inactive |
| IA-2 | DRSC00652 | 0.33 | inactive |
| IA-2 | DRSC24588 | -1.5 | inactive |
| IA-2 | DRSC36830 | -0.125 | inactive |
| IA-2 | DRSC36831 | -0.807 | inactive |
| tor | DRSC07707 | -0.3 | inactive |
| tor | DRSC36623 | 0.181 | inactive |
| tor | DRSC36624 | 0.308 | inactive |
| Sec24CD | DRSC00300 | 0.579 | inactive |
| Alg7 | DRSC02833 | -1.34 | inactive |
| Alg7 | DRSC02834 | 0.986 | inactive |
| Gp210 | DRSC04861 | -0.414 | inactive |
| Gp210 | DRSC39541 | -0.0517 | inactive |
| CG10444 | DRSC05990 | -1.38 | inactive |
| CG10444 | DRSC39598 | -0.0905 | inactive |
| CG31793 | DRSC02605 | 0.717 | inactive |
| CG31793 | DRSC24308 | -0.921 | inactive |
| Cln3 | DRSC10520 | -0.762 | inactive |
| Cln3 | DRSC27270 | 0.713 | inactive |
| Tmhs | DRSC08231 | -1.15 | inactive |
| CG30160 + Tsp42Eb | DRSC04961 | 0.945 | inactive |
| CG30160 + Tsp42Eb | DRSC06791 | 1.45 | inactive |
| Gr47a | DRSC06221 | -0.747 | inactive |
| Gr47a | DRSC39508 | -0.171 | inactive |
| gcl | DRSC07623 | 0.78 | inactive |
| gcl | DRSC27995 | -0.607 | inactive |
| Nup44A | DRSC07248 | 1.17 | inactive |
| Nup44A | DRSC28141 | -0.401 | inactive |
| Eglp4 | DRSC04438 | -0.937 | inactive |
| Eglp4 | DRSC25991 | -0.55 | inactive |
| Best1 | DRSC26475 | 1.94 | active |
| Best1 | DRSC39616 | 0.537 | inactive |
| CG9717 | DRSC16543 | 0.102 | inactive |
| ppk3 | DRSC04275 | 0.51 | inactive |
| ppk3 | DRSC25960 | 0.428 | inactive |
| CG11857 | DRSC14411 | -0.25 | inactive |
| Rh3 | DRSC16822 | 0.307 | inactive |
| CG3702 | DRSC00628 | -0.307 | inactive |
| CG3702 | DRSC39885 | 0.621 | inactive |
| List | DRSC06520 | -0.177 | inactive |
| List | DRSC39801 | -0.12 | inactive |

Looked up above:
Under “Outcome”, Stt3B [DRSC39644] reads inactive
Cln3 [DRSC27270], Outcome → inactive
Under “Outcome”, Nup44A [DRSC28141] has inactive
Value for N [DRSC37611] in “mean ATP z-score”: 0.335
Value for Cln3 [DRSC10520] in “mean ATP z-score”: -0.762
Result for CG7091 [DRSC16197] under “Outcome”: inactive

The list goes on.
| Target gene | DRSC id | mean ATP z-score | Outcome |
| --- | --- | --- | --- |
| CG6659 | DRSC20003 | -0.335 | inactive |
| CG6659 | DRSC39777 | -1.62 | active |
| EloA | DRSC16109 | 0.447 | inactive |
| EloA | DRSC23920 | -1.01 | inactive |
| CG9664 | DRSC00725 | -0.309 | inactive |
| CG7084 | DRSC16194 | 1.1 | inactive |
| CG7084 | DRSC39839 | -0.405 | inactive |
| Jwa | DRSC02048 | 0.0817 | inactive |
| Jwa | DRSC26655 | 0.874 | inactive |
| CG32280 | DRSC08024 | -0.565 | inactive |
| CG32280 | DRSC39889 | 0.399 | inactive |
| Oatp33Eb | DRSC02955 | -0.197 | inactive |
| Oatp33Eb | DRSC39667 | -0.166 | inactive |
| Tollo | DRSC11305 | -0.899 | inactive |
| Tollo | DRSC39718 | 0.248 | inactive |
| hec | DRSC19895 | -0.408 | inactive |
| hec | DRSC39722 | -0.488 | inactive |
| Nup214 | DRSC04421 | -1.03 | inactive |
| Nup214 | DRSC39709 | 0.459 | inactive |
| zyd | DRSC20716 | -0.488 | inactive |
| zyd | DRSC39493 | -0.803 | inactive |
| wun2 | DRSC07566 | 0.696 | inactive |
| wun2 | DRSC36974 | -0.0763 | inactive |
| wun2 | DRSC36975 | -0.157 | inactive |
| ppk20 | DRSC16260 | 0.181 | inactive |
| ppk20 | DRSC28819 | 0.191 | inactive |
| rut | DRSC22976 | -0.159 | inactive |
| RyR | DRSC07543 | -0.838 | inactive |
| RyR | DRSC39632 | -0.403 | inactive |
| Sras | DRSC11287 | -1.38 | inactive |
| sut4 | DRSC07703 | -0.387 | inactive |
| sut4 | DRSC24885 | -0.197 | inactive |
| Scgdelta | DRSC18544 | 3.41 | active |
| caps | DRSC11333 | -0.844 | inactive |
| caps | DRSC22224 | 0.786 | inactive |
| CG31689 | DRSC00734 | 1.4 | inactive |
| CG31689 | DRSC24715 | -0.597 | inactive |
| 5-HT1B | DRSC05031 | -0.204 | inactive |
| 5-HT1B | DRSC25996 | 1.21 | inactive |
| Scgbeta | DRSC15854 | -0.171 | inactive |
| CG6052 | DRSC10574 | -0.933 | inactive |
| CG4462 | DRSC15583 | -0.777 | inactive |
| CG4462 | DRSC25650 | 1.54 | active |
| VhaM9.7-d | DRSC15028 | 0.105 | inactive |
| Oatp33Ea | DRSC02859 | -0.885 | inactive |
| Oatp33Ea | DRSC26461 | -0.973 | inactive |
| PIG-Q | DRSC19138 | -0.583 | inactive |
| PIG-Q | DRSC39435 | -0.344 | inactive |
| frac | DRSC10867 | 0.109 | inactive |
| frac | DRSC29239 | -0.505 | inactive |
| Gr97a | DRSC13802 | -0.109 | inactive |
| colt | DRSC00808 | 0.236 | inactive |
| colt | DRSC29025 | 0.134 | inactive |
| CG8046 | DRSC07059 | -0.348 | inactive |
| mah | DRSC14645 | -0.306 | inactive |
| mah | DRSC28300 | 0.402 | inactive |
| cdm | DRSC16213 | 0.793 | inactive |
| Ipo9 | DRSC16813 | 0.493 | inactive |
